Data as given in PubChem BioAssay AID1224827 (NIAID, 2016).

Screen: 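Confirm genes whose knock-down changes LPS-driven TNF promoter activity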 (follow-up of hits)
Cell system: RAW264.7 G9 mouse macrophage reporter clone
Reagents: single siRNA against mouse genes, 100 nM siRNA
Time to read-out: siRNA for 2 days, then LPS about 16 h
Treatment: bacterial lipopolysaccharide (LPS), 10 ng/ml, cells fixed after overnight (about 16 h) stimulation
Read-out: 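TNF promoter reporter red fluorescence in nuclei, background subtracted, normalised per plate and to non-targeting control siRNA, as z-scores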
Scale: TNF reporter z-score, mean and TNF reporter z-score: higher = stronger Tnf promoter reporter signal; gene median z, three same-vendor siRNAs: higher = stronger Tnf reporter signal for the gene
Active means: 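Active siRNA: replicate-mean z-score of 2 or more, or -2 or less; no calls for control wells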
Here is a random part of about 3,800 reagents tested. About 2,200 of all reagents (57%) count as active. 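Active means a strong reporter change in either direction; calls are per siRNA, not per gene; qiagen siRNAs gave weaker effects.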 Reagents against one gene are numbered here.

target	siRNA no.	TNF reporter z-score, mean	gene median z, three same-vendor siRNAs	TNF reporter z-score, repeat 1	TNF reporter z-score, repeat 2	Call
Etf1 (eukaryotic translation termination factor 1)	1	4.01	-3.78	2.74	5.28	active
Etf1 (eukaryotic translation termination factor 1)	2	-4.08	-3.78	-3.58	-4.58	active
Etf1 (eukaryotic translation termination factor 1)	3	-4.1	-3.78	-3.98	-4.21	active
Etf1 (eukaryotic translation termination factor 1)	4	-0.443	-2.22	1.21	-2.09	inactive
Etf1 (eukaryotic translation termination factor 1)	5	-1.38	-2.22	0.0316	-2.79	inactive
Etf1 (eukaryotic translation termination factor 1)	6	-3.25	-2.22	-4.16	-2.34	active
Taf12 (TATA-box binding protein associated factor 12)	1	-2.33	-3.02	-2.62	-2.05	active
Taf12 (TATA-box binding protein associated factor 12)	2	-2.52	-3.02	-3.43	-1.61	active
Taf12 (TATA-box binding protein associated factor 12)	3	-3.82	-3.02	-3.98	-3.67	active
Cck (cholecystokinin)	1	-0.707	-4.01	-1.98	0.564	inactive
Cck (cholecystokinin)	2	-4.82	-4.01	-3.27	-6.37	active
Cck (cholecystokinin)	3	-5.2	-4.01	-4.75	-5.65	active
Cck (cholecystokinin)	4	0.368	-0.491	0.915	-0.18	inactive
Cck (cholecystokinin)	5	0.0075	-0.491	0.818	-0.803	inactive
Cck (cholecystokinin)	6	-1.87	-0.491	-0.966	-2.78	inactive
Neil2 (nei like 2 (E. coli))	1	-2.91	-4.14	-4.09	-1.73	active
Neil2 (nei like 2 (E. coli))	2	-4.06	-4.14	-4.19	-3.93	active
Neil2 (nei like 2 (E. coli))	3	-5.44	-4.14	-5.11	-5.78	active
Neil2 (nei like 2 (E. coli))	4	3.62	0.199	6.78	0.464	active
Neil2 (nei like 2 (E. coli))	5	2.29	0.199	4.65	-0.0671	active
Neil2 (nei like 2 (E. coli))	6	-2.85	0.199	-3.43	-2.28	active
Pole3 (polymerase (DNA directed), epsilon 3 (p17 subunit))	1	-2.55	-3.79	-3.05	-2.04	active
Pole3 (polymerase (DNA directed), epsilon 3 (p17 subunit))	2	-3.79	-3.79	-3.87	-3.71	active
Pole3 (polymerase (DNA directed), epsilon 3 (p17 subunit))	3	-4.6	-3.79	-4.97	-4.23	active
Pole3 (polymerase (DNA directed), epsilon 3 (p17 subunit))	4	0.491	-1.09	1.99	-1.01	inactive
Pole3 (polymerase (DNA directed), epsilon 3 (p17 subunit))	5	-0.934	-1.09	-0.708	-1.16	inactive
Pole3 (polymerase (DNA directed), epsilon 3 (p17 subunit))	6	-1.85	-1.09	-2.33	-1.37	inactive

A few values from the entries so far.
Etf1 (eukaryotic translation termination factor 1) #1, gene median z, three same-vendor siRNAs → -3.78
Cck (cholecystokinin) #2, gene median z, three same-vendor siRNAs → -4.01
Pole3 (polymerase (DNA directed), epsilon 3 (p17 subunit)) #2, TNF reporter z-score, mean → -3.79
Pole3 (polymerase (DNA directed), epsilon 3 (p17 subunit)) #3, TNF reporter z-score, repeat 1 → -4.97
Entry of Etf1 (eukaryotic translation termination factor 1) #5 under “TNF reporter z-score, mean”: -1.38
Result of Neil2 (nei like 2 (E. coli)) #6 under “gene median z, three same-vendor siRNAs”: 0.199

More reagents follow:
target	siRNA no.	TNF reporter z-score, mean	gene median z, three same-vendor siRNAs	TNF reporter z-score, repeat 1	TNF reporter z-score, repeat 2	Call
Rarres2 (retinoic acid receptor responder (tazarotene induced) 2)	1	-1.49	-3.16	-1.82	-1.16	inactive
Rarres2 (retinoic acid receptor responder (tazarotene induced) 2)	2	-3.16	-3.16	-3.59	-2.72	active
Rarres2 (retinoic acid receptor responder (tazarotene induced) 2)	3	-5.57	-3.16	-4.95	-6.18	active
Rarres2 (retinoic acid receptor responder (tazarotene induced) 2)	4	1.71	-1.06	3.04	0.372	inactive
Rarres2 (retinoic acid receptor responder (tazarotene induced) 2)	5	-1.65	-1.06	-1.77	-1.54	inactive
Rarres2 (retinoic acid receptor responder (tazarotene induced) 2)	6	-1.54	-1.06	-0.576	-2.51	inactive
Fasl (Fas ligand)	1	-3.34	-3.95	-3.44	-3.25	active
Fasl (Fas ligand)	2	-4	-3.95	-4.19	-3.8	active
Fasl (Fas ligand)	3	-4.18	-3.95	-4.27	-4.09	active
Fasl (Fas ligand)	4	5.66	0.555	9.67	1.66	active
Fasl (Fas ligand)	5	1.45	0.555	3.45	-0.553	inactive
Fasl (Fas ligand)	6	-1.71	0.555	-0.698	-2.72	inactive
Gcm2 (glial cells missing homolog 2)	1	-1.62	-3.14	-2.15	-1.08	inactive
Gcm2 (glial cells missing homolog 2)	2	-3.14	-3.14	-3.02	-3.27	active
Gcm2 (glial cells missing homolog 2)	3	-3.61	-3.14	-3.46	-3.76	active
Gcm2 (glial cells missing homolog 2)	4	5.26	1.55	8.33	2.19	active
Gcm2 (glial cells missing homolog 2)	5	1.04	1.55	2.22	-0.136	inactive
Gcm2 (glial cells missing homolog 2)	6	0.363	1.55	0.91	-0.183	inactive
Traf2 (TNF receptor-associated factor 2)	1	0.947	-3.48	-0.166	2.06	inactive
Traf2 (TNF receptor-associated factor 2)	2	-3.48	-3.48	-3.46	-3.5	active
Traf2 (TNF receptor-associated factor 2)	3	-5	-3.48	-4.89	-5.1	active
Traf2 (TNF receptor-associated factor 2)	4	2.26	0.778	4.84	-0.32	active
Traf2 (TNF receptor-associated factor 2)	5	0.778	0.778	1.07	0.483	inactive
Traf2 (TNF receptor-associated factor 2)	6	0.86	0.778	3.23	-1.51	inactive
Or2h1 (olfactory receptor family 2 subfamily H member 1)	1	-1.66	-2.73	-2.17	-1.16	inactive
Or2h1 (olfactory receptor family 2 subfamily H member 1)	2	-2.24	-2.73	-3.29	-1.19	active
Or2h1 (olfactory receptor family 2 subfamily H member 1)	3	-3.62	-2.73	-3.91	-3.33	active
Or2h1 (olfactory receptor family 2 subfamily H member 1)	4	2.44	0.826	3.32	1.56	active
Or2h1 (olfactory receptor family 2 subfamily H member 1)	5	0.0868	0.826	0.0767	0.0969	inactive
Or2h1 (olfactory receptor family 2 subfamily H member 1)	6	0.563	0.826	2.12	-0.994	inactive
